PubChem BioAssay AID602196 – INSERM – 2012
The deposit covers about 23,000 reagents; below is an unselected part. 455 of all reagents (2%) count as active. 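Active includes both protection and sensitisation; some change values fall well beyond the stated -50 to +50 range.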 The record does not give: the amount of reagent.

Assay: 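Genes whose knock-down alters cisplatin killing of lung cancer cells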
Cells: human A549 lung cancer cells
Reagent: siRNA pair against human genes
Time to read-out: 48 h transfection before cisplatin; time from cisplatin to read-out not stated
Challenge: cisplatin at a dose killing half of control-siRNA cells; exact dose and duration not given
Read-out: 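Shift in cisplatin death relative to control siRNA, from -50 (all cells die) to +50 (no cells die); siRNAs harmful on their own scored 0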
Scale: two-siRNA summed score (-2 to +2): higher = both siRNAs protect from cisplatin killing; -2 means both sensitise; mean protection from cisplatin (shift in death) and protection from cisplatin (shift in death), siRNA C and protection from cisplatin (shift in death), siRNA D: higher = protection from cisplatin killing
Rule for the call: 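siRNAs harmful alone (LDH or WST-1) get 0; others get +1 for less and -1 for more cisplatin killing; genes are active when the two siRNAs give the same sign, summing to ±2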
Meaning of the calls: active = both siRNAs shift cisplatin killing the same way; inactive = no consistent shift, or siRNA harmful alone

gene	PubChem SID	two-siRNA summed score (-2 to +2)	mean protection from cisplatin (shift in death) (%)	protection from cisplatin (shift in death), siRNA C (%)	protection from cisplatin (shift in death), siRNA D (%)	activity call
TAF8	SID131520752	1	11	9.4	12.6	inactive
LOC401578	SID131510573	0	3.4	-3.3	10.1	inactive
PRSS33	SID131507345	0	-0.3	11.2	-11.7	inactive
LOC402028	SID131522573	1	20	11.3	28.7	inactive
PPP2CA	SID131514996	0	8.5	4.7	12.4	inactive
LOC440790	SID131507312	0	-0.3	-3.1	2.5	inactive
MTMR9	SID131501850	-1	-7	4.6	-18.5	inactive
YAE1	SID131514186	0	7.5	7	7.9	inactive
NEMF	SID131519842	1	7.7	19.8	-4.4	inactive
HSPA1L	SID131519160	1	3.2	-7.9	14.3	inactive
MIP	SID131511344	0	4.2	15.5	-7	inactive
FHIP2A	SID131506223	0	-1.8	-1.3	-2.3	inactive
DNASE2	SID131504332	0	-5.7	-5.8	-5.5	inactive
PELI2	SID131505410	0	-3.2	1.1	-7.4	inactive
FCER1A	SID131502617	-1	0	-5.9	5.9	inactive
NSUN2	SID131502246	-1	-4.1	-15	6.9	inactive
EMD	SID131504005	0	-6.8	-2.1	-11.5	inactive
USP17L2	SID131515737	0	9.6	14	5.2	inactive
SLC2A14	SID131516873	0	11.8	12.3	11.4	inactive
NEUROD4	SID131507686	0	0.2	7.2	-6.9	inactive
SOS1	SID131505611	0	-2.9	1.1	-6.8	inactive
CCDC83	SID131514881	0	8.4	13.4	3.3	inactive
KLRF1	SID131510712	0	3.5	0.6	6.5	inactive
WAC-AS1	SID131515898	0	9.9	9.2	10.5	inactive
BTN2A3P	SID131500749	-1	-16.6	-34.3	1.1	inactive
KATNB1	SID131515616	0	9.4	9.9	9	inactive
TCEA1	SID131516053	0	10.2	6.6	13.8	inactive
SCN5A	SID131506404	0	-1.6	-11.1	7.9	inactive
SPDL1	SID131508094	0	0.6	-3.5	4.7	inactive
GRM6	SID131508838	0	1.5	14.8	-11.8	inactive
THG1L	SID131507702	0	0.2	7.7	-7.3	inactive
LOC442126	SID131523196	2	24.8	28.9	20.8	active
TMEM79	SID131519925	1	8	29.7	-13.7	inactive
LOC440866	SID131501935	-1	-6.5	0.9	-13.9	inactive
POC1B	SID131519886	1	7.8	14.8	0.9	inactive
LOC392556	SID131505798	0	-2.6	4.7	-9.8	inactive
BCL2A1	SID131512366	0	5.4	4.7	6.1	inactive
SESTD1	SID131520269	1	9.3	1.5	17.2	inactive
NAA40	SID131514112	0	7.4	13.6	1.2	inactive

Part of the list above, limited to “protection from cisplatin (shift in death), siRNA D (%)”.
POC1B [SID131519886] = 0.9
LOC392556 [SID131505798] = -9.8
